Laboratory results from publication doi:10.1101/2020.08.29.273516.
Like-named read-outs stand apart in the source and are kept apart here. These are yes or no findings as the source states them, for the method shown. For some of these results: Binding seen in cells or lysates may run through a third protein. Some results given as binding are weak or reduced against the parent protein; the word gives no strength. For some of these results: Where a sequence is shown, tags or fusion partners need not be part of it.

Sequences of proteins named here, by UniProt entry; tags and fusion partners are left off. Residues count along the entry.
UniProt Q9QUK6, residues 26-835: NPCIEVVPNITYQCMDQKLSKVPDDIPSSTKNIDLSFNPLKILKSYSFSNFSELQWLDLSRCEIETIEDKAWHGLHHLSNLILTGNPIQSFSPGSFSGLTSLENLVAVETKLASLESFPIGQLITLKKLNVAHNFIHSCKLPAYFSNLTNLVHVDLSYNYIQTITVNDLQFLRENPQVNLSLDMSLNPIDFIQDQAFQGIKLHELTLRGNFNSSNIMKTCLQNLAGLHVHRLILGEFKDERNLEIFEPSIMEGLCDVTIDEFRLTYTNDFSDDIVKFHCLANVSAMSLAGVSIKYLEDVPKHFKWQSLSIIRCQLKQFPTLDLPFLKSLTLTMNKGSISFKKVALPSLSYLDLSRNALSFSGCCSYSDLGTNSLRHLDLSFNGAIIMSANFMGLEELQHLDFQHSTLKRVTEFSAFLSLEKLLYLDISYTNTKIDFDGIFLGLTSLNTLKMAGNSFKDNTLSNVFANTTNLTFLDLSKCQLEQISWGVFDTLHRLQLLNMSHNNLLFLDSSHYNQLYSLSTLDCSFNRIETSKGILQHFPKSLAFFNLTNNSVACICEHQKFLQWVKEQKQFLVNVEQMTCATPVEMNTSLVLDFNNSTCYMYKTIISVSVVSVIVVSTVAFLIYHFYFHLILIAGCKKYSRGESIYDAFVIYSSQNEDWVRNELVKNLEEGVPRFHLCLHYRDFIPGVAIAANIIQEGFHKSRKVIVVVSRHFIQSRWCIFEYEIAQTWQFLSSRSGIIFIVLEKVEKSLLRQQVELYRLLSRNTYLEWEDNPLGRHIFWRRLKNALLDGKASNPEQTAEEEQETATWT
UniProt O00206, residues 676-835: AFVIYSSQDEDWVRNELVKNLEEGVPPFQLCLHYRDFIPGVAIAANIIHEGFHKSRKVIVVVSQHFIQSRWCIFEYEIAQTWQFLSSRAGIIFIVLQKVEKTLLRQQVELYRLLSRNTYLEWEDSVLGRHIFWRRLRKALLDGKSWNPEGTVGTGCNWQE
UniProt Q5SNZ0: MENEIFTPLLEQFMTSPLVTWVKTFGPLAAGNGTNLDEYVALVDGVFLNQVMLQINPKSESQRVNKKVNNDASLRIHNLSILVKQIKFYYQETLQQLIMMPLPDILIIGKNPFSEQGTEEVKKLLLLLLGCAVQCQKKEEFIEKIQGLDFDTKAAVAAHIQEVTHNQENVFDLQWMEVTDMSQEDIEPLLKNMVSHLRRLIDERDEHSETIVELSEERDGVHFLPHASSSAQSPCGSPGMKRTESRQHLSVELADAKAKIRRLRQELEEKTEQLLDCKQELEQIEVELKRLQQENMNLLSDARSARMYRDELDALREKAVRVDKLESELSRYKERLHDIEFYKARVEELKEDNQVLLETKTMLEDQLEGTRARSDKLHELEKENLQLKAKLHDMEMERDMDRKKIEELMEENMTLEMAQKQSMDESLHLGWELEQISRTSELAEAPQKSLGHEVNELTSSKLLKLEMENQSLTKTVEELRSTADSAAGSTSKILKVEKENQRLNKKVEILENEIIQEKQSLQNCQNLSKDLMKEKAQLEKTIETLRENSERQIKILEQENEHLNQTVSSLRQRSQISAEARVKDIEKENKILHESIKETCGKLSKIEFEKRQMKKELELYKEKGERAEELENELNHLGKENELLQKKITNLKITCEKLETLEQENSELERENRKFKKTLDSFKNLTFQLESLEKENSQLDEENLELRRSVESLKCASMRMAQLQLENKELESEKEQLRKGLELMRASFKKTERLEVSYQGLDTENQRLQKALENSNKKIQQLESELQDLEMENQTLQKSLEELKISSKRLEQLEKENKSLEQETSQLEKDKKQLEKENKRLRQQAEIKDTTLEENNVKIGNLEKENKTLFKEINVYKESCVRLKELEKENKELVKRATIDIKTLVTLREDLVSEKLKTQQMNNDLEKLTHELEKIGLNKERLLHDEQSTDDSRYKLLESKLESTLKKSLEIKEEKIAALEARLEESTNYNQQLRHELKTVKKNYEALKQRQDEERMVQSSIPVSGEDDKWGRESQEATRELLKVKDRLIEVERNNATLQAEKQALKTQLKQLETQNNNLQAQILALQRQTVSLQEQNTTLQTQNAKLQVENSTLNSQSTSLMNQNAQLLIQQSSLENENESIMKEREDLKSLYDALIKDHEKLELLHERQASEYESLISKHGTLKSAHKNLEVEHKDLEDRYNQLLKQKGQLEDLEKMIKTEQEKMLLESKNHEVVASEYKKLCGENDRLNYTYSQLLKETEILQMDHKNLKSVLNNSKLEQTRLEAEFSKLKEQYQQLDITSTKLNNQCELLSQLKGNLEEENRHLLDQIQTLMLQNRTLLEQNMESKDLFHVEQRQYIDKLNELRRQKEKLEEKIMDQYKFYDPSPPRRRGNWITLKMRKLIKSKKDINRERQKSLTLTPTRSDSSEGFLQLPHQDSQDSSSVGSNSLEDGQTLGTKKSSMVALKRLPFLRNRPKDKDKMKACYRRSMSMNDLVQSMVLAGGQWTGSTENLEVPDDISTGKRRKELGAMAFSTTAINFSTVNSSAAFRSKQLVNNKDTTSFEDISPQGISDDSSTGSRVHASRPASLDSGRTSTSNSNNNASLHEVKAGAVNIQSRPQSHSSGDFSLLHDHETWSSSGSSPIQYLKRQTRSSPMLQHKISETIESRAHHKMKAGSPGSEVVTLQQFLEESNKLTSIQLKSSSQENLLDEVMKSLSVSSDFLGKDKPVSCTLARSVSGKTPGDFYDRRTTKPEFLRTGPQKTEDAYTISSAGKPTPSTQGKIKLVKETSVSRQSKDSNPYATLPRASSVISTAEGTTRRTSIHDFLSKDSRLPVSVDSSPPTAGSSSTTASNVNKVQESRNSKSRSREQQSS

What was measured:
[1] = biological target: TLR4, endogenous full length, RAW 264.7 macrophages (mouse (endogenous in RAW 264.7)) (UniProt Q9QUK6); assay: co-IP
[2] = biological target: TLR4, endogenous full length, RAW 264.7 macrophages (mouse (endogenous in RAW 264.7)) (UniProt Q9QUK6); assay: co-IP; remark: listed apart in the source
[3] = biological target: TLR4, endogenous full length, RAW 264.7 macrophages (mouse (endogenous in RAW 264.7)) (UniProt Q9QUK6); assay: co-IP; remark: listed apart in the source
[4] = biological target: GST-TLR4-TIR (GST-tagged cytoplasmic Toll/interleukin-1 receptor module of TLR4, aa 676-835) (UniProt O00206); assay: pull-down

Molecule	binding [1]	binding [2]	binding [3]	binding [4]
GIV (Girdin), endogenous full length, RAW 264.7 macrophages (from UniProt Q5SNZ0 1-1873)	binds	binds	–	–
RQIKIWFQNRRMKWKKKPEFLRPGPRKT [GIV-TILL peptide (cell-penetrable: Antennapedia peptide fused to the TILL motif of GIV)]	–	–	binds	binds
